# Results reported in PubChem BioAssay AID651789 (National Center for Advancing Translational Sciences (NCATS), 2012).
# The shares of active, inactive and inconclusive entries below differ from those in the screen. Potencies beside an inconclusive call are fits to weak or partial responses and may not hold up. Active and inactive are the calls of the source. The call rests on the fitted dose curve; in most records, active means well fitted inhibition curve with a large enough effect; inconclusive means small, poorly fitted or top-dose-only effect; inactive means no such curve, though single readings can be large or run the other way.
# Assay: Acumen qHTS Assay for Inhibitors of the mTORC1 Signaling Pathway in WT MEF Cells: Hit Validation; further: nearly all actives have a fitted effect of over 60% in size
# Settings: Acumen imaging; series mostly up to 37.3 µM
# Outline: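 Read-out is immunofluorescent phospho-rpS6 (Ser235/236) normalised to PI-stained cell number, reported as % active cells using a 7.5 nM rapamycin threshold. Cells: WT or Tsc2-/-, p53-/- MEFs, compound-exposed 24 h at 37C; PI count also tracks viability.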
# Potency means the concentration at half of the fitted maximal effect.
row,SMILES,Potency
1,CCOc1ccccc1NC(=O)c1cn(C2CCCC2)c(=O)c2c1c1ccccc1n2C,inactive
2,COc1ccc(OCC(=O)NCc2ccc3c(c2)CCN3C(=O)c2ccccc2)cc1,"inconclusive: 16.5 µM [inhibitor, single point]"
3,CCCCC(CC)CNC(=O)c1ccc(Cn2c(=O)[nH]c3cc(OC)c(OC)cc3c2=O)cc1 (stereo not given),active: 13.1 µM
4,Cc1ccc(C(C)C)c(OCC(=O)Nc2cc(-c3nc4ccccc4[nH]3)ccc2C)c1,inactive
5,CCOc1ccc(N(CC(=O)Nc2ccccc2CC)S(=O)(=O)c2c(C)noc2C)cc1,"inconclusive: 1.65 µM [inhibitor, full curve, poor fit]"
6,CCCC1=Nc2cc(C(=O)NCc3ccccc3)ccc2Sc2ccccc21,active: 2.61 µM
7,CCC(=O)C1=C(c2ccc(Cl)cc2)N(C(=O)CC)n2c(C)nnc2S1,"inconclusive: 20.7 µM [inhibitor, single point]"
8,COc1ccc(Cl)cc1S(=O)(=O)NCc1ccc2c(c1)CCN2C(=O)c1cccc(C)c1,"inconclusive: 10.4 µM [inhibitor, partial curve]"
9,COc1ccc(S(=O)(=O)N(CCc2ccccc2)CC(=O)Nc2cccc(OC)c2)cc1,inactive
10,Cc1ccccc1OCCn1c(=N)n(C(C)C)c2ccccc21,"inconclusive: 6.56 µM [inhibitor, partial curve]"
11,Cc1ccc(-n2ncc(C(=O)NCCCN3CCc4ccccc4C3)c2C2CCN(C(=O)OC(C)(C)C)CC2)c(C)c1,inactive
12,COc1ccccc1-c1cc(C(F)(F)F)nc(S(=O)(=O)CCCC(=O)Nc2ccccc2F)n1,"inconclusive: 23.3 µM [inhibitor, single point]"
13,CCC(C)n1c(SCc2c(F)cccc2Cl)nc2ccsc2c1=O (stereo not given),"inconclusive: 4.14 µM [inhibitor, partial curve]"
14,COc1cc(Nc2nc(SCC(=O)c3ccc(Cl)c(Cl)c3)nc3ccccc23)cc(OC)c1,"inconclusive: 3.29 µM [inhibitor, full curve, poor fit]"
15,Cc1ccccc1Oc1nc2ccccn2c(=O)c1/C=C(\C#N)c1nc2ccccc2[nH]1,inactive
